At least one compound was matched to its structure with a doubt left.
Key:
[1] = test system: CD1 mice sensitized to the hapten DNP; assay: Mouse acute cutaneous anaphylaxis model (Assay 5); format: in vivo
[2] = test system: SHIP−/− bone marrow derived macrophages; assay: LPS-stimulated TNFα production in SHIP−/− bone marrow derived macrophages; format: cell-based, mice; settings: SHIP−/− cells, 3 μM, 10 ng/mL LPS 2 h
Experimental: Bone marrow cells were aspirated from 4 to 8 week old C57B16×129Sv mixed background mice and SHIP^+/+ and SHIP^−/− mast cells prepared as described previously. Bone marrow derived macrophages from SHIP^+/+ and SHIP^−/− mice were obtained and maintained in IMDM supplemented with 10% FCS, 150 μM MTG, 2% C127 cell conditioned medium as a source of macrophage colony stimulating factor (M-CSF) (macrophage medium)
LPS stimulation of macrophages. For the analysis of LPS-stimulated TNFα production, 2×10^5 cells were plated the night before in 24 well plates in macrophage medium. The next day, the medium was changed and AQX-016A or carrier was added to cells at the indicated concentrations for 30 min prior to the addition of 10 ng/mL LPS. Supernatants were collected for TNFα determination by ELISA (BD Biosciences, Mississauga, ON, Canada). For analysis of intracellular signaling, 2×10^6 cells were plated the night before in 6 cm tissue culture plates. […] Calcium influx was monitored by spectrofluorometry. […] Total cell lysates were then prepared and analyzed for phospho-PKB, phospho-p38^MAPK, phospho-MAPK, Grb-2 (Cell Signalling, Mississauga, Ont) and SHIP^6 by immunoblot analysis.
The target specificity and biological efficacy of AQX-016A were assessed by comparing AQX-016A's effects on PI3K-regulated processes in primary SHIP^+/+ vs SHIP^−/− macrophages and mast cells. […]

In the case of `Cc1cc(O)c(O)c2c1[C@]1(C)CCC3C(C)(C)CCC[C@]3(C)[C@H]1C2` (some centres unmarked) [AQX-016A], the “mast cell degranulation, ratio of [3H]-Tdr in test vs control ear” value [1] is reported as “inhibited mast cell degranulation” and the “suppression of TNFα production” value [2] is reported as “indistinguishable from non-AQX-016A treated cells”.
